{"source": "paper PMC7156110", "about": "“The MAPK substrate MASS proteins regulate stomatal development in Arabidopsis” (PLoS Genetics, 2020)", "biological_target": "T1, YDA^KI (kinase-inactive YDA, K429R), split-YFP fusion for BiFC (Arabidopsis thaliana) (UniProt Q9CAD5)", "T1 sequence": "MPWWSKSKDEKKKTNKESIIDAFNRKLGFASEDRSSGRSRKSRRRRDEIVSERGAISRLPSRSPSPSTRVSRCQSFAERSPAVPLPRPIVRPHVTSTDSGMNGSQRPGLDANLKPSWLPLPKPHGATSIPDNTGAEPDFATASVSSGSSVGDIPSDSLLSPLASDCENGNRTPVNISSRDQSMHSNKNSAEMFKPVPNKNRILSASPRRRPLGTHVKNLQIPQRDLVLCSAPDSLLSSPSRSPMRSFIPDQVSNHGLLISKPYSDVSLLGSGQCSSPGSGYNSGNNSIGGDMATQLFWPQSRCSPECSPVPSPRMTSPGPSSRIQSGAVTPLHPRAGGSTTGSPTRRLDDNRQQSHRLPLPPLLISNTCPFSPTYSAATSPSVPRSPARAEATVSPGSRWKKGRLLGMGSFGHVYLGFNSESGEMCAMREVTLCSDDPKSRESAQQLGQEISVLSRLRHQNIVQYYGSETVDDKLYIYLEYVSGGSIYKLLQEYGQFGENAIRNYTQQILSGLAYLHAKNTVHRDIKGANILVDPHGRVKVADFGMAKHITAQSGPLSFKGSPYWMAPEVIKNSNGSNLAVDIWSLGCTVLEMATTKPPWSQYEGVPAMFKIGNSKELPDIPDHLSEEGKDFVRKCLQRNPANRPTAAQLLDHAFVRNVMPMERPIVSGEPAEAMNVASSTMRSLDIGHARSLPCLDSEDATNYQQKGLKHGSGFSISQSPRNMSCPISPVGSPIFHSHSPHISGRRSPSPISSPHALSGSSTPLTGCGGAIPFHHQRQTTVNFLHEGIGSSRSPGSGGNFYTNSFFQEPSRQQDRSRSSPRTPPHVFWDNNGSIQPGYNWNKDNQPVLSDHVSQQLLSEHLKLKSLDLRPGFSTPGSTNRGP", "assay": "split reporter; BiFC with split YFP in tobacco leaf epidermal cells; signal at the plasma membrane", "note": "No constants are given. Whether binding was seen depends on the method and setting. Binding seen in cells or lysates may run through a third protein. Binding calls can cover weak binding; strength is not graded here. Tags and fused reporters may be left off the sequences shown."}
{"substance": "MASS3, split-YFP fusion for BiFC (Arabidopsis thaliana)", "values": [{"measurement": "binding", "result": "binds"}]}
